Source: PubChem BioAssay AID588325 (National Center for Advancing Translational Sciences (NCATS), 2011)
The shares of active, inactive and inconclusive entries below differ from those in the screen. Where the call is inconclusive, the potency comes from a doubtful curve fit. Activity calls are given as the source filed them. Calls come from the whole dose curve; as a rule, active = well fitted curve in the direction sought with a large enough effect; inconclusive = small, poorly fitted or top-dose-only effect, or effect the other way, or another doubt; inactive = no such curve, though single readings can be large or run the other way.

Experiment: Confirmatory Assay to Find Inhibitors of T. brucei phosphofructokinase: Cytotoxictity in KB-3-1
Conditions: KB-3-1 human cells cytotoxicity counter-screen; series mostly up to 46.1 µM
Text: Various species of the protozoan family Trypanosomatidae are responsible for a range of serious human diseases in tropical and subtropical areas of the world. […] Many of the disorders caused by trypanosomatids are fatal if left untreated, but most currently used drugs are inefficient and toxic.
Oxidative metabolism involving the mitochondrial tricarboxylic acid cycle and oxidative phosphorylation are repressed in these parasites, and recent RNA interference (RNAi) experiments have shown that even partial depletion of certain individual glycolytic enzymes can lead to the death of cultured parasites. One such glycolytic enzyme, phosphofructokinase (PFK), catalyzes the formation of fructose-1,6-bisphosphate (F1,6BP) and ADP from fructose-6-phosphate (F6P) and ATP, and in many metabolic circumstances makes an important contribution to the control of flux through the glycolytic pathway. As a specific glycolytic target, PFK is particularly attractive as it catalyzes the first irreversible step in glycolysis, and structural and kinetic studies have shown very substantial and essential differences from corresponding host enzymes, allowing for the discovery of parasite-selective inhibitors.
Confirmed qHTS active compounds were tested for toxicity against the KB-3-1 human cervical carcinoma cell lines. This line havs historically been used as representative human cells in in vitro Trypanosoma assays, and so provide a relevant surrogate for human cells in testing Tb PFK inhibitor toxicity.
NIH Chemical Genomics Center [NCGC]
NIH Molecular Libraries Probe Centers Network [MLPCN]
Assay Submitter (PI): Malcom Walkinshaw, University of Edinburg
KB-3-1 cells were dispensed into white solid 1536-microwell plates in 5 uL media (high glucose DMEM, 10% FBS) with a Thermo Multidrop. The plates were incubated at 37 degrees Celsius for 2 hours, and subsequently treated with compounds using the Kalypsys pin tool, delivering 23 nL of test compounds to each well. The plates were then incubated for an additional 72 hours at 37 degrees Celsius. Cytotoxicity was assessed by adding 2.5 uL of Cell-Titer Glo (Promega, Madison, WI) via Multidrop, incubating at room temperature for 10 min and reading luminescence on the Perkin Elmer ViewLux using a 1 second exposure and 1x binning. DMSO-treated cells were included as negative control, while media-only wells were used as a positive control equivalent to 100% cell toxicity for the sake of data normalization.

**Q.** With Cc1cc(N(C)S(=O)(=O)c2ccc(NC(=O)Cc3ccc(Cl)c(Cl)c3)cc2)no1 as the compound, how does the Potency read?
**A.** inconclusive: 35.3 µM [cytotoxic, single point]

**Q.** Which Potency does the source give for Cc1cc(NS(=O)(=O)c2ccc(NC(=O)Cc3ccc(Cl)c(Cl)c3)cc2)on1 here?
**A.** inconclusive: 0.791 µM [rising, full curve]

**Q.** With Cc1cc(N[S+](=O)([O-])c2ccc(NC(=O)Cc3ccc(Cl)nc3)cc2)no1 as the compound, how does the Potency read?
**A.** inconclusive: 4.99 µM [rising, partial curve, poor fit]

**Q.** Which Potency does the source give for CN(C)c1cccc(NS(=O)(=O)c2ccc(NC(=O)Cc3ccc(Cl)c(Cl)c3)cc2)c1 here?
**A.** inconclusive: 35.3 µM [cytotoxic, single point]

**Q.** Which Potency does the source give for O=C(Cc1ccc(Cl)c(Cl)c1)Nc1ccc(S(=O)(=O)Nc2ccn[nH]2)cc1 here?
**A.** inconclusive: 6.28 µM [rising, partial curve]

**Q.** With Cc1cc(NS(=O)(=O)c2ccc(NC(=O)Cc3ccc(Cl)c(C(F)(F)F)c3)cc2)no1 as the compound, how does the Potency read?
**A.** inconclusive: 7.05 µM [rising, partial curve]

**Q.** For Cc1cc(NS(=O)(=O)c2ccc(NC(=O)Cc3ccc(Cl)c(Cl)c3)cc2)no1, which Potency is on record?
**A.** inconclusive: 11.2 µM [cytotoxic, partial curve, poor fit]

**Q.** With O=C(Cc1ccc(Cl)c(Cl)c1)Nc1ccc(S(=O)(=O)Nc2cccc(O)c2)cc1 as the compound, how does the Potency read?
**A.** inconclusive: 35.3 µM [cytotoxic, single point]

**Q.** For Cc1cc(N[S+](=O)([O-])c2ccc3cc(NC(=O)Cc4ccc(Cl)c(Cl)c4)ccc3c2)no1, which Potency is on record?
**A.** inactive

**Q.** Which Potency does the source give for Cc1cc(NS(=O)(=O)CCNC(=O)Cc2ccc(Cl)c(Cl)c2)no1 here?
**A.** inactive

**Q.** With Cc1cc(NC(=O)c2csc(NC(=O)Cc3ccc(Cl)c(Cl)c3)n2)no1 as the compound, how does the Potency read?
**A.** inconclusive: 12.5 µM [rising, partial curve, poor fit]

**Q.** For Cc1cc(NS(=O)(=O)c2ccc(NS(=O)(=O)Cc3ccc(Cl)c(Cl)c3)cc2)no1, which Potency is on record?
**A.** inactive

**Q.** Which Potency does the source give for Cc1cc(NS(=O)(=O)c2ccc(NC(=O)Cc3ccccc3)cc2)no1 here?
**A.** inconclusive: 4.99 µM [cytotoxic, partial curve, poor fit]

**Q.** Which Potency does the source give for Cc1cc(NS(=O)(=O)c2ccc(C(=O)NCc3ccc(Cl)c(Cl)c3)cc2)no1 here?
**A.** inactive

**Q.** For Cc1cc(NS(=O)(=O)c2ccc(NC(=O)Cc3cccc(Cl)c3)cc2)no1, which Potency is on record?
**A.** inactive

**Q.** With O=C(Cc1ccc(Cl)c(Cl)c1)Nc1ccc(S(=O)(=O)Nc2ccccc2)cc1 as the compound, how does the Potency read?
**A.** inconclusive: 4.45 µM [rising, partial curve]

**Q.** For CCOC(=O)c1cccc(NS(=O)(=O)c2ccc(NC(=O)Cc3ccc(Cl)c(Cl)c3)cc2)c1, which Potency is on record?
**A.** inconclusive: 4.99 µM [rising, partial curve]

**Q.** Which Potency does the source give for Cc1cc(NS(=O)(=O)Cc2ccc(NC(=O)Cc3ccc(Cl)c(Cl)c3)cc2)no1 here?
**A.** inactive
